Data from the supplement of paper PMC12067093, “Discovery and optimisation of a covalent ligand for TRIM25 and its application to targeted protein ubiquitination” (Chemical Science, 2025).
The list shows a part of the results.

Amino acid sequences for entries named in this document (tags omitted). A change or cut given only in a name is not applied to a line headed by its entry.
UniProt Q8IWT6: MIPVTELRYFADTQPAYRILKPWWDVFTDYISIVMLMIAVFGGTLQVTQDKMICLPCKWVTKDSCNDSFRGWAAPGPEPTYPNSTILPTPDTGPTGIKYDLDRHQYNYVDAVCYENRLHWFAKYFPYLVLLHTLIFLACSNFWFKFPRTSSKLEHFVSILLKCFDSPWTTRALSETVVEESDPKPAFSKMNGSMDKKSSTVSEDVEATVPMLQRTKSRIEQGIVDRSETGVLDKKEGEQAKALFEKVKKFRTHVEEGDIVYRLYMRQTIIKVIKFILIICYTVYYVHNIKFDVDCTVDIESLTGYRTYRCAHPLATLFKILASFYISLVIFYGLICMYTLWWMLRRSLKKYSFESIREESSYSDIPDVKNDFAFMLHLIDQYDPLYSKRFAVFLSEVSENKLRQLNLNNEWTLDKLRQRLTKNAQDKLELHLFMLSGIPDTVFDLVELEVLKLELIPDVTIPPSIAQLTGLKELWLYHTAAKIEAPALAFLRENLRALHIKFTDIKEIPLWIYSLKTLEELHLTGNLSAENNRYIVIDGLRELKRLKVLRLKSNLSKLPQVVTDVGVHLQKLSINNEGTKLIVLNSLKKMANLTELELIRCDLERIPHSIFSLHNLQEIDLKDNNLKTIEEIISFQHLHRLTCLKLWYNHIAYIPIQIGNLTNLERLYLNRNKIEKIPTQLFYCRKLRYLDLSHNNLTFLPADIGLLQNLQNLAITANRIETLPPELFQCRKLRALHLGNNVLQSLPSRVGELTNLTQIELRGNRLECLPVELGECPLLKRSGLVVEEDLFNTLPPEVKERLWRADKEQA
UniProt P48059, whole entry, looked up: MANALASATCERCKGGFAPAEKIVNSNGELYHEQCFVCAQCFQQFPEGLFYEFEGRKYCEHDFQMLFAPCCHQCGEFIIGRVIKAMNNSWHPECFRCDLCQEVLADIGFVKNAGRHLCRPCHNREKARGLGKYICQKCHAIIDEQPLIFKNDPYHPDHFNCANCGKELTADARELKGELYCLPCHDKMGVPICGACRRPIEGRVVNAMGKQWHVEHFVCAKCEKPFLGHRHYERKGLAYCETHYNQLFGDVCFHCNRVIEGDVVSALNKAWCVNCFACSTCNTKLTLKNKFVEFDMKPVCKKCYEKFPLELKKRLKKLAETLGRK
UniProt Q8TDW0: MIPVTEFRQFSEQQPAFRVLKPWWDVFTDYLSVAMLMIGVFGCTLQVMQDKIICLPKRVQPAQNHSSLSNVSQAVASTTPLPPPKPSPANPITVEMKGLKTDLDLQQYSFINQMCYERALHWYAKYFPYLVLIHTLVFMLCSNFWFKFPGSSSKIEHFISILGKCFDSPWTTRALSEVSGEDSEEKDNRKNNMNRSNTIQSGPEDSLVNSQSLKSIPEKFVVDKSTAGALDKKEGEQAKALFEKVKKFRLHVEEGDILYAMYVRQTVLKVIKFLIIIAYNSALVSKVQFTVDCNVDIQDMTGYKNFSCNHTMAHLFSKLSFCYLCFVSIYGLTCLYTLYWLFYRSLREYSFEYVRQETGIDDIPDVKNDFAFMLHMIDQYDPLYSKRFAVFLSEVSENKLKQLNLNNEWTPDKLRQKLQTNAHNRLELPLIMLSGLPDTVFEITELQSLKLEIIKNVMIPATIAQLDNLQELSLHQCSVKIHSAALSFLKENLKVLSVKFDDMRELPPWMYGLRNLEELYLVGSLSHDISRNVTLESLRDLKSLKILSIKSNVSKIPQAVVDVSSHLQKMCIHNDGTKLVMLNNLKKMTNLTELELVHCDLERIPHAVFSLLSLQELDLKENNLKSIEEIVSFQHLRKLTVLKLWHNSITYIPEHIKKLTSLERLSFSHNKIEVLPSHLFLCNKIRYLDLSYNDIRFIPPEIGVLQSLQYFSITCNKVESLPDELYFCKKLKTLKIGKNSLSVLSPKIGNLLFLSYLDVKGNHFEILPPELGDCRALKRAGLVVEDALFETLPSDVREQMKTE
UniProt Q03252: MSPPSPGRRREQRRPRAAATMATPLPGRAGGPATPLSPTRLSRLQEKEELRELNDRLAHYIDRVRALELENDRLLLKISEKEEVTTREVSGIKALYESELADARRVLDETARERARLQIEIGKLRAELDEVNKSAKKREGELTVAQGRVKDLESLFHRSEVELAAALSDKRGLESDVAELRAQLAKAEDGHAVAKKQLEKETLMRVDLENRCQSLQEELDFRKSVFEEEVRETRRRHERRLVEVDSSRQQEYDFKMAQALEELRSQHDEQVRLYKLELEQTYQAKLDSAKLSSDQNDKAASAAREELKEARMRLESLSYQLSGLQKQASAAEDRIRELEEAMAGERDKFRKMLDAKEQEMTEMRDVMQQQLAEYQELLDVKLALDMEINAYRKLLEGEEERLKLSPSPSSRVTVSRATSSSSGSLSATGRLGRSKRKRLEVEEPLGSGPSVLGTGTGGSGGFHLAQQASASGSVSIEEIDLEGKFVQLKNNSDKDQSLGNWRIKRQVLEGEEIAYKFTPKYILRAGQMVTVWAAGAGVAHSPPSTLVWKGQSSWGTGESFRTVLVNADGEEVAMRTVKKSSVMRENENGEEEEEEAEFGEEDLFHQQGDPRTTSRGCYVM
UniProt O75427: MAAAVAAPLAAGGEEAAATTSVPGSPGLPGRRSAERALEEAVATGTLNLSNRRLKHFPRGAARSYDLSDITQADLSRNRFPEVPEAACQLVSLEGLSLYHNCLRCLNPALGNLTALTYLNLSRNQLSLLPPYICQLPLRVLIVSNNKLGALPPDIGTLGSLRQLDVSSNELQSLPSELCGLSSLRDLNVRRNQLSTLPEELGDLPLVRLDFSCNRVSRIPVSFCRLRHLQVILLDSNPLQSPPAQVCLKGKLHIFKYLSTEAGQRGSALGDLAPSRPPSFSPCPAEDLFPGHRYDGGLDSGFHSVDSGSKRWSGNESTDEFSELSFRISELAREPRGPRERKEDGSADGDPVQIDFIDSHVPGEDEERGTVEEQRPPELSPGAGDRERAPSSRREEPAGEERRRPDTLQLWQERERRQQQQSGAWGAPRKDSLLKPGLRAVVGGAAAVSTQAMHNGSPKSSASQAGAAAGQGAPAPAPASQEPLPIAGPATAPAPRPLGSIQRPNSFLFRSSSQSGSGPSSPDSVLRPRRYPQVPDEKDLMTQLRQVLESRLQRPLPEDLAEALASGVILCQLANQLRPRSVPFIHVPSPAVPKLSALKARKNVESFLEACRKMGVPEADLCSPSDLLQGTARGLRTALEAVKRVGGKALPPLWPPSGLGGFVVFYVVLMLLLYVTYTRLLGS
UniProt Q12912: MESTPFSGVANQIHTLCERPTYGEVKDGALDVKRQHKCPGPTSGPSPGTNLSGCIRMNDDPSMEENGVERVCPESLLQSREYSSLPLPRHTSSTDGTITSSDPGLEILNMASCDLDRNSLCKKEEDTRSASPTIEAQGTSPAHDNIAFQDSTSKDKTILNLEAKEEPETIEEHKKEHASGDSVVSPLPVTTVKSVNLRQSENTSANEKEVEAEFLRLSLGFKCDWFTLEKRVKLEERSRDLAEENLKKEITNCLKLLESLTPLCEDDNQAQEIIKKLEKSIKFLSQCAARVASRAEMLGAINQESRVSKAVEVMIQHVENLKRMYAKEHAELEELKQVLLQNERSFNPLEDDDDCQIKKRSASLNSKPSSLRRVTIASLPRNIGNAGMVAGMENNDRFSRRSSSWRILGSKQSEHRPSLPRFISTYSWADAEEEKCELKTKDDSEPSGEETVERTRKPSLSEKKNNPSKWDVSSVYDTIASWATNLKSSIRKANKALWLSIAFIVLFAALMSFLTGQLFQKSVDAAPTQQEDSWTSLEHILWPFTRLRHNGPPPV
UniProt Q9Y333: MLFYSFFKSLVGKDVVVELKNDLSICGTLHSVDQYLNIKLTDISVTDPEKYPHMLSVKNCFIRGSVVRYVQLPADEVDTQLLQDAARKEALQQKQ
UniProt Q96CX6, whole entry, looked up: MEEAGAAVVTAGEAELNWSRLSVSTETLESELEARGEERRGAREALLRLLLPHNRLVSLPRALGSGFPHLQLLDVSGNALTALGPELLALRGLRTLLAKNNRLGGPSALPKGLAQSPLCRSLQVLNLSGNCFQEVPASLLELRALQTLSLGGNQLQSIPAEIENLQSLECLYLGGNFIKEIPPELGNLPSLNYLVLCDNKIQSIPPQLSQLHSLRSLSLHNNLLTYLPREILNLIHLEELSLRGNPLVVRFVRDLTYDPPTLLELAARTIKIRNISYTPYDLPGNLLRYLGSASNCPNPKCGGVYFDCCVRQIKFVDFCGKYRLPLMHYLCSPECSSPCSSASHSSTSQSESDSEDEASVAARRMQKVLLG
UniProt P53667: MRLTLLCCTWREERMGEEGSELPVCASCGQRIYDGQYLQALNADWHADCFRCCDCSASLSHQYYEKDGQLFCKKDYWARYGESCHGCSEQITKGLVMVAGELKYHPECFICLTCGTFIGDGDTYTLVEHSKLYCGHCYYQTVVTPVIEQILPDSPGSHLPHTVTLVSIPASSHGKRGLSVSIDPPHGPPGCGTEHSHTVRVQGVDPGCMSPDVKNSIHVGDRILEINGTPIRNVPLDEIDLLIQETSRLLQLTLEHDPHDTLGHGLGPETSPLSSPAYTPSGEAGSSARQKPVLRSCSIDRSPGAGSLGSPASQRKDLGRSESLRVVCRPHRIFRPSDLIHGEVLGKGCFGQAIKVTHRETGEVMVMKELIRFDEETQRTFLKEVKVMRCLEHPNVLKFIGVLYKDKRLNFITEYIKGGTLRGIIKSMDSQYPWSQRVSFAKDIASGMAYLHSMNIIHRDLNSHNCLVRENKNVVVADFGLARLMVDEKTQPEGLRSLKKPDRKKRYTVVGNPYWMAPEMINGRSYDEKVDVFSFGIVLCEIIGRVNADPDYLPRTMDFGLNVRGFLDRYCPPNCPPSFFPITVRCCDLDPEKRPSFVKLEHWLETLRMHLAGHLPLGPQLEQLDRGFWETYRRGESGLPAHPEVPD
UniProt Q96II8: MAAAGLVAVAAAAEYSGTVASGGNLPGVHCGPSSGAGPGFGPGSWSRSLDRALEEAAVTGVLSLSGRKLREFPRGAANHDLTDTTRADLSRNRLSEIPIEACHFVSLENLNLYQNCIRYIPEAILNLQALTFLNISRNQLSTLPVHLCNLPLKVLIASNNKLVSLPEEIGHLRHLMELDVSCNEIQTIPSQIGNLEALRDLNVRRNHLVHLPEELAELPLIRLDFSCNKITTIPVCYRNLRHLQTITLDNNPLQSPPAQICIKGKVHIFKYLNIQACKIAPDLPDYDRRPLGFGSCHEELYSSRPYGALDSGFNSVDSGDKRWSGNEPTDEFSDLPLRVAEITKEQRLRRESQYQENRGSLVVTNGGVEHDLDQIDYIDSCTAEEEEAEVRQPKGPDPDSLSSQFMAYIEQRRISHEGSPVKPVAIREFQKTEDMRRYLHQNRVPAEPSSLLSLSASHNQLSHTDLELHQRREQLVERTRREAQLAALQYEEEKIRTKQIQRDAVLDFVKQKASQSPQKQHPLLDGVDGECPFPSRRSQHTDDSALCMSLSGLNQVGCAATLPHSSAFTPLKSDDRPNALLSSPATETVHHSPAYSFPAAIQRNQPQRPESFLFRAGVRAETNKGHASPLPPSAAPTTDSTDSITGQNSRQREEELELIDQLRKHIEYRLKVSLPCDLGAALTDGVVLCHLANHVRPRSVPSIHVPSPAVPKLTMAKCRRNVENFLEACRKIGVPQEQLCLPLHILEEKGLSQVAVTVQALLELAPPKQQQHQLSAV
UniProt Q15345: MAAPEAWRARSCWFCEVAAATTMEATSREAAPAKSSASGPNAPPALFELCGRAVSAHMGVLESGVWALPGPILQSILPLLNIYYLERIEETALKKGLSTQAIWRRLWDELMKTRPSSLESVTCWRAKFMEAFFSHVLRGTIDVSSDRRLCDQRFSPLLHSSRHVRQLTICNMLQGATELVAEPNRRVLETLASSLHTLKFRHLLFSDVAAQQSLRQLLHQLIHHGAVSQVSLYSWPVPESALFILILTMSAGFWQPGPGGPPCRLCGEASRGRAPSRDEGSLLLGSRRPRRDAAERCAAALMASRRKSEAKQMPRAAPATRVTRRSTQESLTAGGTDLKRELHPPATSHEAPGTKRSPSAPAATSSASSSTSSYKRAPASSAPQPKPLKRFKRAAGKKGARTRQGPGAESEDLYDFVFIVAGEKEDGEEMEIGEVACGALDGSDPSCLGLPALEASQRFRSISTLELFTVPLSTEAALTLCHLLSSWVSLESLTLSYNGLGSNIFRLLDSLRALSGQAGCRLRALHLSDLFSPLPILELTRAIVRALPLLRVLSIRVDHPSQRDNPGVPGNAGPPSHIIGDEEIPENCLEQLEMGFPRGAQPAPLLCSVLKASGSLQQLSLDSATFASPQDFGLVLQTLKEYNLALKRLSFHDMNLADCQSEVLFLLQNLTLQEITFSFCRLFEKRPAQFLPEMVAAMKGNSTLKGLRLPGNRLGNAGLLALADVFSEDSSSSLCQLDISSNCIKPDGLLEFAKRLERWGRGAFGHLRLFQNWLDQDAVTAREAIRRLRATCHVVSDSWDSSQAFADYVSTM

Compound: Cc1cc(ccc1-c1ccccc1)C(=O)N1CCCN(CC1)C(=O)CCl [compound 10]
Assay: probe-labelled cysteine peptide fold change vs DMSO (competition) (log2 fold change); higher = less target engagement (more negative = stronger competition)
Conditions: 10 µM; THP-1; incubation time: 4 h
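Further: competitive profiling in live THP-1 cells: cysteine peptides tagged with an iodoacetamide desthiobiotin (IA-DTB) probe, intensity after compound treatment relative to DMSO-treated cells.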

| Target | probe-labelled cysteine peptide fold change |
| --- | --- |
| LRRFIP1_Q32MZ4_14_EIDCLSPEAQK (UniProt Q32MZ4) | -0.0581 |
| LRRC8A_Q8IWT6_776_LECLPVELGECPLLK (UniProt Q8IWT6) | -0.14 |
| LIMS1_P48059_240_GLAYCETHYNQLFGDVCFHCNR (UniProt P48059) | 0.0739 |
| LRRC8C_Q8TDW0_599_MTNLTELELVHCDLER (UniProt Q8TDW0) | 0.152 |
| LRRC14_Q15048_109_LHTSEPGASTQPLCR (UniProt Q15048) | 0.268 |
| LPXN_O60711_237_VLTAMNQTWHPEHFFCSHCGEVFGAEGFHEK (UniProt O60711) | 0.0787 |
| LGALS9_O00182_74_FEDGGYVVCNTR (UniProt O00182) | 0.126 |
| LRPPRC_P42704_930_CVANNQVETLEK (UniProt P42704) | 0.012 |
| LRPPRC_P42704_413_EVQMHSFPLQFTLHCALLANK (UniProt P42704) | -0.0822 |
| LRRFIP1_Q32MZ4_726_SEDADRCTLPEHESPSQDISDACEAESTER (UniProt Q32MZ4) | -0.0306 |
| LPCAT2_Q7L5N7_223_RTTSGGEWPQILVFPEGTCTNR (UniProt Q7L5N7) | -0.109 |
| LRPPRC_P42704_721+722_AKYESDMVTGGYAALINLCCR (UniProt P42704) | -0.122 |
| LMNB2_Q03252_212_CQSLQEELDFRK (UniProt Q03252) | 0.0967 |
| LRCH4_O75427_283_GSALGDLAPSRPPSFSPCPAEDLFPGHR (UniProt O75427) | -1.16 |
| LRMP_Q12912_355_SFNPLEDDDDCQIK (UniProt Q12912) | -0.278 |
| LRRC8A_Q8IWT6_776_GNRLECLPVELGECPLLK (UniProt Q8IWT6) | 0.113 |
| LPXN_O60711_152_GHCASCQKPIAGK (UniProt O60711) | -0.0607 |
| LIG4_P49917_20_AASQTSQTVASHVPFADLCSTLER (UniProt P49917) | -0.112 |
| LIMS1_P48059_240+252_GLAYCETHYNQLFGDVCFHCNR (UniProt P48059) | 0.0277 |
| LRPPRC_P42704_130_SCGSLLPELKLEER (UniProt P42704) | -0.0916 |

An excerpt of these results, with tabs:
Target	probe-labelled cysteine peptide fold change
LIMS1_P48059_240_GLAYCETHYNQLFGDVCFHCNR (UniProt P48059)	0.0739
LGALS9_O00182_74_FEDGGYVVCNTR (UniProt O00182)	0.126

Going on with the list:

| Target | probe-labelled cysteine peptide fold change |
| --- | --- |
| LMNB2_Q03252_212_CQSLQEELDFR (UniProt Q03252) | 0.196 |
| LRP1B_Q9NZR2_1079_DCEDGSDEK (UniProt Q9NZR2) | 0.0727 |
| LIMD1_Q9UGP4_630_DYHVECYHCEDCGLELNDEDGHR (UniProt Q9UGP4) | -0.0648 |
| LSM2_Q9Y333_26_NDLSICGTLHSVDQYLNIK (UniProt Q9Y333) | 0.109 |
| LRRC47_Q8N1G4_367_LHEDLCEK (UniProt Q8N1G4) | -0.211 |
| LSP1_P33241_36_AEASSDPGAEEREELLGPTAQWSVEDEEEAVHEQCQHER (UniProt P33241) | 0.044 |
| LPIN2_Q92539_322_DASMEDTVCTIVKPK (UniProt Q92539) | -0.301 |
| LRP1_Q07954_2741_FCSEAQFECQNHR (UniProt Q07954) | 0.101 |
| LSS_P48449_636_QMADGGWGEDFESCEERR (UniProt P48449) | -0.158 |
| LRPPRC_P42704_571_YCQEPR (UniProt P42704) | 0.261 |
| LRRC58_Q96CX6_296_YLGSASNCPNPK (UniProt Q96CX6) | -0.199 |
| LIMK1_P53667_49_IYDGQYLQALNADWHADCFR (UniProt P53667) | 0.17 |
| LIN37_Q96GY3_28_NQLDAVLQCLLEK (UniProt Q96GY3) | -0.0473 |
| LRBA_P50851_832_NSPQCPESMEVR (UniProt P50851) | -0.223 |
| LRCH4_O75427_105_CLNPALGNLTALTYLNLSR (UniProt O75427) | -0.0243 |
| LRCH3_Q96II8_277_YLNIQACK (UniProt Q96II8) | -0.16 |
| LRRC41_Q15345_170_QLTICNMLQGATELVAEPNRR (UniProt Q15345) | -0.0651 |
| LRRC8C_Q8TDW0_728_VESLPDELYFCK (UniProt Q8TDW0) | -0.0868 |
| LTN1_O94822_1745_KFHSACLYK (UniProt O94822) | -0.157 |
